PubChem BioAssay AID1259272, Sanger Institute – 2017
Here is a random part of 794 deposited reagents. In the full data, 7 (0.88%) got an active call. 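Essential calls reflect knock-down without drug only, not synergy with drugs; drug exposure length not given.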 Not all columns of the deposit are shown. The record does not give: the amount of reagent, the time to read-out.

Aim: 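Kinase knock-downs lethal to colorectal cancer cells, with or without anchor drugs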 (primary screen)
Cells: SW1116 human colorectal cancer cells
Reagent: siRNA pool against human genes
Treatment: anchor drugs BYL719 (1 µM), cetuximab (5 µg/ml) or trametinib (10 nM), or DMSO vehicle; exposure length not given
Measured: 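Replicate-averaged viability versus control-pool wells, with a robust z-score for siRNA alone and a per-drug synergy score (BYL719, cetuximab, trametinib)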
Direction: viability z-score, no drug: higher = more cells remaining; strongly negative means essential gene
Rule for the call: 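a robust z-score under -3 with siRNA and no drug marks the gene essential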
Calls: active = essential (knock-down alone); inactive = no change

CDK1 (cyclin dependent kinase 1) showed viability z-score, no drug 0.842; inactive. PRP4K (pre-mRNA processing factor kinase PRP4K) gave viability z-score, no drug -0.111; inactive. Depletion of PTEN (phosphatase and tensin homolog) came out at: viability z-score, no drug 0.842; inactive. PRKD2 (protein kinase D2) showed viability z-score, no drug 0.842; inactive. Silencing of EPHA7 (EPH receptor A7) came out at: viability z-score, no drug 0.0124; inactive. VRK3 (VRK serine/threonine kinase 3) scored viability z-score, no drug -0.761; inactive.

NEK3 (NIMA related kinase 3) scored viability z-score, no drug -3.65; active. CKMT2 (creatine kinase, mitochondrial 2) scored viability z-score, no drug 0.357; inactive. For GRK1 (G protein-coupled receptor kinase 1), the entry reads viability z-score, no drug 0.842; inactive. For PTGS1 (prostaglandin-endoperoxide synthase 1), the entry reads viability z-score, no drug 0.393; inactive. Against UHMK1 (U2AF homology motif kinase 1), the values are viability z-score, no drug 0.842; inactive. For SRC (SRC proto-oncogene, non-receptor tyrosine kinase) the deposit lists viability z-score, no drug 0.768; inactive.

Knock-down of CSF1R (colony stimulating factor 1 receptor) came out at: viability z-score, no drug -0.442; inactive. For PANK4 (pantothenate kinase 4 (inactive)), the values are viability z-score, no drug -2.03; inactive. CAMK2G (calcium/calmodulin dependent protein kinase II gamma) showed viability z-score, no drug 0.173; inactive. After knock-down of PI4KB (phosphatidylinositol 4-kinase beta), the screen gave viability z-score, no drug 0.238; inactive. After knock-down of RIOK3 (RIO kinase 3), the screen gave viability z-score, no drug 0.842; inactive. Silencing of NRBP2 (nuclear receptor binding protein 2) came out at: viability z-score, no drug -0.525; inactive.

After knock-down of MARK2 (microtubule affinity regulating kinase 2), the record shows viability z-score, no drug 0.842; inactive. Against CLSPN (claspin), the values are viability z-score, no drug -0.346; inactive. CAMK2D (calcium/calmodulin dependent protein kinase II delta) scored viability z-score, no drug 0.842; inactive. With knock-down of DLG4 (discs large MAGUK scaffold protein 4), the record shows viability z-score, no drug 0.842; inactive. NUAK1 (NUAK family kinase 1) showed viability z-score, no drug -1.93; inactive. After knock-down of TAB1 (TGF-beta activated kinase 1 (MAP3K7) binding protein 1), the screen gave viability z-score, no drug 0.842; inactive.

After knock-down of MYLK2 (myosin light chain kinase 2) the results were viability z-score, no drug -0.481; inactive. Depletion of STK39 (serine/threonine kinase 39) resulted in: viability z-score, no drug -1.95; inactive. After knock-down of PPP2R1A (protein phosphatase 2 scaffold subunit Aalpha) the results were viability z-score, no drug 0.842; inactive. HK2 (hexokinase 2) gave viability z-score, no drug -0.42; inactive.

4 neighbouring reagents from above:
PRKD2 (protein kinase D2) | viability z-score, no drug = 0.842; Call = inactive
EPHA7 (EPH receptor A7) | viability z-score, no drug = 0.0124; Call = inactive
VRK3 (VRK serine/threonine kinase 3) | viability z-score, no drug = -0.761; Call = inactive
NEK3 (NIMA related kinase 3) | viability z-score, no drug = -3.65; Call = active
